Results are given in words; binding and its absence hold for the method and conditions named. Binding seen in cells or lysates may run through a third protein. Binding can be weak; no strength is given. Values belong to the molecule of their own block, whether it stands above or below them.
What was measured:
[1] = target: T1, MetF subunit of the methylene-THF reductase MetFV of T. kivui (Thermoanaerobacter kivui); assay: co-purification (Ni2+-NTA affinity chromatography, then size exclusion chromatography; SDS-PAGE with Coomassie stain); His-tagged complex produced in T. kivui, purified from CFE on Ni2+-NTA resin and Superdex 200 under anoxic conditions at room temperature; subunits seen on a 12% SDS-polyacrylamide gel
T1 sequence: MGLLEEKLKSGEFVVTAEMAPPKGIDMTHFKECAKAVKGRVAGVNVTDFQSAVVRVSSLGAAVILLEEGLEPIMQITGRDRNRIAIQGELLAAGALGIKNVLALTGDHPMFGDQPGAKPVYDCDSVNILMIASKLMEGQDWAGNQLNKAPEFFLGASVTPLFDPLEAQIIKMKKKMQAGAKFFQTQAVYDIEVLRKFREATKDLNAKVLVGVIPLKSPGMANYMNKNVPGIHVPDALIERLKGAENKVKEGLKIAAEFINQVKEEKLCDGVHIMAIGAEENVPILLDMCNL

Protein sequences, listed by entry. Tags and fused reporters are not part of them. Lines headed by an entry give the natural chain unless they say otherwise; changes in a name come on top.
UniProt A0A097ATJ4: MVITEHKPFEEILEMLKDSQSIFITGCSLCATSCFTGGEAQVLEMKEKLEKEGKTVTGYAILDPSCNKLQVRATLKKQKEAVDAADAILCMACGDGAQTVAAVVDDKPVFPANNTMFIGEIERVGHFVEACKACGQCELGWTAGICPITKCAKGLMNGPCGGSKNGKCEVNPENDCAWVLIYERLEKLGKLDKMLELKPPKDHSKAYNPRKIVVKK

[2] = target: HydA subunit of the electron-bifurcating hydrogenase HydABC of T. kivui, with 10x His-tag (Thermoanaerobacter kivui); assay: as above

binding [1]: binds
Molecule: MetV subunit of the methylene-THF reductase MetFV of T. kivui (from UniProt A0A097ATJ4)

binding [2]: binds
B1: HydB subunit of the electron-bifurcating hydrogenase HydABC of T. kivui (protein, UniProt A0A097ATG4 1-630)
chain: MVKLKSIQELENLREKIKEAKKKEKIVIRICGGTGCRASGSLAVRDELVKVLKREGFANVDVNLSSDCLENTSEVHVKMTGCQGFCAQGPLMTIEPLGVFYVGVKPEDVEEIVEKSIKKNEIIERLLYHDPATGKTYVKRDENPFYAKQTRLVLKHCGTVDPASVYDYIAEGGYSAIAKALTMDRKQIIDEVIKSGLRGRGGAGFPTGEKWLGAYKNQSPKKYIICNGDEGDPGAFMDRSVMEGDPHKVIEGMMIGAYAIGSDEGYIYVRAEYPLAVQMLRKAIEECEKLGLLGDNILGTGFSFRLHVREGAGAFVCGESTALTYSIEGKRGMPRVRPPRTNECGLWEMPTVLNNVETFACIPEIILNGGEWFASIGTPTSTGTKIFALSGKVNRTGLVEVPMGLKLRELIFDIGGGIANNKKFKAVQLGGPSGGCVPESQLDLPIDFDSLSKAGAIMGSGGVVVVDEDTCMVDFAKFFTNFIVEESCGKCIPCREGNKKMLEILERITEGKGKEGDIELLEELGDVIISASLCGLGKTAPNPVLSTIKHFRDEYEAHIRDKKCPAGACQALAAYKIDPGKCIGCGKCVKVCPVGAISGEKKKPHVIDQSKCIKCGACAENCPKGAIYKG

binding [2]: binds
B2: HydC subunit of the electron-bifurcating hydrogenase HydABC of T. kivui (protein, UniProt A0A097ATI0 1-170)
chain: MCNCCCKGSKDPRFEKVDEILSKLANERGALIAILQHVQHEFGYLPEDVIFYIASKTGIPASKIYGVATFYAQFHLKPRGKYVIRVCLGTACHVKGANKILAEFEKQLGIKAGETTSDLKFTLERVGCLGACGLAPTVMVNEKTYGKMTPEKVSEVLKEYSDVEAAASAQ

Reference: PMC8578170, “Electron carriers involved in autotrophic and heterotrophic acetogenesis in the thermophilic bacterium Thermoanaerobacter kivui” (Extremophiles, 2021)
